Reference: PMC10163288
The other results are listed elsewhere or left out.

B1: il2ra_site2_3nfp_normal_mot_HHH_b1_06381_af2_000000237_0001_1_19_H_._HHH_b1_03565_af2_0001_0000200009_0000001_0 (protein)
chain: SSSSDREELAEFNLEYLRARGDEELFEELRELLERLRKHGDPELEEAIEELLHEIAEKAAGSSSS
B2: il2ra_site2_2erj_sap_17_mot_b5c6f2848cbf55e1ecbd417c35b42da7_0001_af2_000000155_0001_1_14_H_._HHH_b1_00942_af2_0001_0000800086_0000001_0_0001 (protein)
chain: SSSLRESFKLAVEALRELSRLFEEGDPEEAERLVEEVARQLEENGSPTAVRMLEEAFRALRSSSS
B3: il2ra_site2_2erj_sap_20_mot_HHH_b1_02757_000000121_0001_41_57_H_._HHH_b2_05554_0001_0000200009_0000001_0_0001 (protein)
chain: SSSSSHEEEVERLLEEAKEAYERGDLHLVYRLMVEALRVASEHQDDELLREIAEFVEELSSSSSS
B4: il2ra_site1_2b5i_normal_mot_HHH_b2_04353_af2_000000128_0001_1_17_H_._HHH_b1_07800_af2_0001_0000800040_0000001_0_af2pred_0001_af2pred (protein)
chain: SSSSSEADHEVTELYRRASELFRNGNPEEARELIEEALEIAERNNDETAVKDLERFLELLRSSSS
B5: il2ra_site1_3nfp_normal_mot_HHH_b1_01231_af2_000000170_0001_1_16_H_._HHH_b2_03769_0001_0000100007_0000001_0 (protein)
chain: SSSSDEELRELLQEILRLAFEGNTEEAKELLEELRELAEERNDPSVQKFVEVLERAIRLHESSSS
B6: il2ra_site2_3nfp_sap_15_mot_HHH_b2_04451_000000238_0001_21_37_H_._HHH_b2_00465_af2_0001_0000200003_0000001_0_0001 (protein)
chain: SSSSDVEERIKELLKQIEELEEEGDRNEVAQLLLEVLRLAVEANDREAARLVLEAFKELQSSSSS
B7: il2ra_site1_2b5i_sap_8_mot_HHH_b2_04131_000000150_0001_1_16_H_._HHH_b2_06569_af2_0001_0000100002_0000001_0_0001_af2pred_dldesign_0_af2pred (protein)
chain: SSSSSSAEEFVNEAIEKAKELKAAGRPDEARRLLKLALKRARKANDADLVARVEALLAELSSSSS
B8: il2ra_site2_2erj_normal_mot_HHH_b2_06005_000000006_0001_1_15_H_._HHH_b2_02812_0001_0000400022_0000001_0 (protein)
chain: SSSSDESEEEIERLIREAEEALEEGDPELAASLIIEAAHIAARNGDDELLEELRELFERVYSSSS
B9: il2ra_site1_1z92_normal_mot_HHH_b1_04615_af2_000000156_0001_38_52_H_._HHH_eva_0441_0001_0000700042_0000001_0 (protein)
chain: SSSSSSSSTEEWLEELAELAFRLGSRRNVEFLLRQARIEGDEELAEHIEELLRRLSSSSSSSSSS
B10: il2ra_site1_3nfp_sap_15_mot_HHH_b1_01231_af2_000000170_0001_1_16_H_._HHH_b1_02696_0001_0000100002_0000001_0_0001 (protein)
chain: SSSSSNEAARRVTELLRRALRIEDDEERERLLEEAQRLAEEFNDKIAKWLVEQVERLLEESSSSS
B11: il2ra_site1_2b5i_normal_mot_HHH_b2_04910_000000118_0001_1_19_H_._HHH_b1_03439_af2_0001_0000100003_0000001_0_af2pred_0001_af2pred (protein)
chain: SSSSSLTEQAVELLREANELDQNGNPEEAEEVLKEAKEFAERGGSKALLRMIEAALRLLKGSSSS
B12: il2ra_site1_3nfp_normal_mot_1cd86ef9f1587ae5d14d35bbbd8e7f1d_0001_1_000000087_0001_34_49_H_._HHH_b2_08068_0001_0000600032_0000001_0_af2pred_0001_af2pred_swapped (protein)
chain: SSSSDEEAEELLKEAQELVKELLERGDPNEASKVVEEVLRRLAELGNPEAAEELLEFAHKLSSSS
B13: il2ra_site2_2erj_sap_25_mot_HHH_b2_05804_000000098_0001_44_58_H_._HHH_b2_04034_0001_0000100007_0000001_0_0001 (protein)
chain: SSSSDERLRQLYELANLLMHLAAKGDEEEFEKVLKEAKELAEELDSENARELLEDLERLLSSSSS
B14: il2ra_site1_3nfp_sap_13_mot_0eddeacbb14b769e73e254714f31e2f9_0001_af2_000000052_0001_37_51_H_._HHH_b1_08594_0001_0000400033_0000001_0_0001 (protein)
chain: SSSSSDEEVERRVEELLEEARHVDPREAVELIQEAYRLAAEANDQELAEEIYRFMREMVQSSSSS
B15: il2ra_site2_2erj_sap_31_mot_HHH_b1_04859_000000124_0001_24_41_H_._ems_p1-16H-GBL-16H-GABBL-16H_0045_0001_0001_0002_0001_0000100002_0000001_0_0001 (protein)
chain: SSSSDDLHRLYELANELMQAIAEGDEEKARELIEELEELIEKSDSETAREILEWLERALESSSSS
B16: il2ra_site2_2erj_sap_18_mot_3b06bd03f1c6bceadc68eab912867b79_0001_000000296_0001_36_50_H_._HHH_b1_00587_0001_0000100003_0000001_0_0001_af2pred_0001_af2pred_1 (protein)
chain: SSSDREEVAEEVVERLVKELGLDEEAQRQLELSAELAIEAGFSPEQIEIFLKLVAEQLLKQLSSS
B17: il2ra_site2_3nfp_normal_mot_HHH_b1_05627_af2_000000038_0001_43_56_H_._HHH_b2_05144_0001_0000100001_0000001_0 (protein)
chain: SSSSKAEEYLRVALLLLRELLEEGDEEAARRVAEAALALAENLNDEEVEEEVRKVLEELESSSSS
B18: il2ra_site2_3nfp_normal_mot_HHH_b1_00660_af2_000000090_0001_40_57_H_._HHH_b1_00119_0001_0000400009_0000001_1_af2pred_0001_af2pred (protein)
chain: SSSSSDEEEEEIRELIEEAKQIEDPEEAKKVLRRASALAAELGNYELFAELVNLLERLGSSSSSS
B19: il2ra_site2_2erj_normal_mot_HHH_b2_00484_af2_000000139_0001_42_55_H_._HHH_b2_04486_0001_0000400022_0000001_0 (protein)
chain: SSSSDEERERLFEEIARLSAELAEKGDPRLFEELEELLELAEELGNEIAARYAEHALEHFKSSSS
B20: il2ra_site1_1z92_normal_mot_HHH_b2_04040_af2_000000124_0001_19_35_H_._HHH_b1_02397_0001_0000300010_0000001_0_af2pred_0001_af2pred_1 (protein)
chain: SSSSSIEEFLEKQLERKAKLGNERAFERLLKDAERALKLAGDEEALEKLEEFARRLEEEMKSSSS
B21: il2ra_site1_2b5i_normal_mot_HHH_b1_06428_000000224_0001_1_17_H_._HHH_b1_06787_0001_0000300016_0000001_0 (protein)
chain: SSSSSEAKEILHLAEEALKRGDEEELEELLEELEELIKESPNPQRRKLLEAVFRTVEEALSSSSS
B22: il2ra_site2_2erj_normal_mot_HHH_b2_00484_af2_000000139_0001_42_55_H_._HHH_b1_02313_0001_0000800029_0000001_0 (protein)
chain: SSSSSSEEEEELAIRIHELFRKARSEEELEEIFEELRRKIEELNSEVLRRYLEHAHKHARSSSSS
B23: il2ra_site1_2b5i_sap_11_mot_HHH_b1_08678_af2_000000008_0001_41_54_H_._HHH_b2_08195_af2_0001_0000100007_0000001_0_0001 (protein)
chain: SSSSELHRFAAELVDKLAEKLGLDDEQFSELTREAVRLIWRGVSEEEIEELVQRLAEELRGSSSS
B24: il2ra_site1_1z92_sap_29_mot_HHH_b1_02756_000000071_0001_20_37_H_._HHH_b1_00020_0001_0000200011_0000001_0_0001_af2pred_0001_af2pred (protein)
chain: TTTEELLREAVEKNDEEELRKFIELLLRDAGDPELVRQLLKILVKRLGLPPEVLERLEELLEELT
B25: il2ra_site1_1z92_normal_mot_934a834d9b8b770824478def2ff2f329_0001_af2_000000088_0001_15_30_H_._HHH_b2_05182_af2_0001_0000400021_0000001_0_af2pred_0001_af2pred_1 … (protein)
chain: SSSSDEEEELVREIVEEYGGDEAVERDAQRFAEFLAEKGVSEEAIERNLRRIVEHAARRENSSSS
B26: il2ra_site2_3nfp_normal_mot_HHH_b1_01086_000000225_0001_20_36_H_._HHH_b2_07947_0001_0000100002_0000001_0_af2pred_0001_1_af2pred_swapped (protein)
chain: SSSSSSDEEEEVEELLEEAKHIDDPHERFAALALAAELAFRARNPELVRLVRELAAKLSSSSSSS
B27: il2ra_site2_2erj_normal_mot_HHH_b1_03609_af2_000000077_0001_42_55_H_._HHH_b1_04957_af2_0001_0000800018_0000001_0 (protein)
chain: SSSSSDEELEKLIEEAEELLKQGNEEEAWKVLRRAAALAFELNDFELWSKIAELLREIGSSSSSS
B28: il2ra_site1_1z92_sap_19_mot_HHH_b1_00697_000000055_0001_1_18_H_._HHH_b1_05485_0001_0000400015_0000001_0_0001_af2pred_0001_af2pred (protein)
chain: GERHVEIAERFAGGDPEKFVRLVLRLLEAAGDLSPEELEKLREELEELLKRDPEKAKELAKEALT
B29: il2ra_site1_1z92_sap_21_mot_HHH_b1_07866_af2_000000238_0001_1_18_H_._HHH_b2_03299_af2_0001_0000100001_0000001_0_0001_af2pred_0001_af2pred (protein)
chain: SSSSSSSEVEEKAEELLKELREEGDEREVRLLEFLLRQVRQFGSPRAKELLEEALEALSSSSSSS
B30: il2ra_site2_2erj_normal_mot_9f5b7fc4e9d6b3037bff8dd1fb84ce76_0001_000000082_0001_16_32_H_._8cccc599a7bb59b440cc763c2d19aad1_0001_af2_0001_0000700015_0000001_0 (protein)
chain: DESLKALVEFVLRGEIPPELAARYLELSAEDSNDPRIRELLELVELLKKGDPEAEELLEEFLEKT
B31: il2ra_site2_3nfp_normal_mot_HHH_b1_05785_af2_000000002_0001_41_57_H_._HHH_b2_02344_0001_0000900037_0000001_0 (protein)
chain: SSSSSEERLLEAALRSLEALQRQGDEEMVELTAEYAKAAAALLNDEETLEEIEQLLREYNSSSSS
B32: il2ra_site1_1z92_normal_mot_HHH_b2_08033_af2_000000151_0001_1_18_H_._HHH_b1_08599_af2_0001_0000100004_0000001_0 (protein)
chain: SSSSDEDEEIQELYKQATELLRNGDPEEAEEVLKRAEELAEELGDETLARDLREMLRFIKSSSSS
B33: il2ra_site2_2erj_normal_mot_HHH_b1_07584_000000201_0001_42_55_H_._HHH_b1_04993_af2_0001_0000500021_0000001_0 (protein)
chain: SSSSSSDEVEELAAEAVEAAHNGNPEEARKILEQAEELAKELNNETLERYVELALRHLSSSSSSS
B34: il2ra_site1_2b5i_normal_mot_HHH_b2_04910_000000118_0001_1_19_H_._HHH_b2_07216_0001_0000100001_0000001_1 (protein)
chain: SSSSSEETREARELFHEADELDKEGDPEEAERTLEEALEIARQGGSRQLARMIESALRQLESSSS
B35: il2ra_site1_3nfp_sap_26_mot_HHH_b1_05490_000000239_0001_1_19_H_._HHH_b2_01214_af2_0001_0000100005_0000001_0_0001_af2pred_0001_af2pred (protein)
chain: TTEELLKRLVKNAVESNNPRQLRRILRDLERYLGDPEEAERVLEELIEEVLGDPEEAEKLVEKAK
B36: il2ra_site2_3nfp_sap_16_mot_HHH_b2_08046_000000127_0001_20_37_H_._8323a3979fe47b92d96c7c6278d960ae_0001_0001_0000100012_0000001_0_0001_af2pred_0001_af2pred_1 (protein)
chain: SSSSDEAERLVERAEELLEEGDLEEAERILKEARKQAAEKGDFELFARILELLELLERLGSSSSS
B37: il2ra_site1_2b5i_sap_12_mot_HHH_b1_04915_000000205_0001_19_36_H_._HHH_b2_03210_af2_0001_0000200012_0000001_1_0001 (protein)
chain: SSSSDLLERVQELFAEASRLFLKGNPEEARKVLEEAHELAEEAGDEKTREDIERMLERINSSSSS

molecular target: il2ra, P01589; test: yeast display titration

Apparent Kd, inactive:
B1 no binding seen
B2 > 420 nM
B3 no binding seen
B4 no binding seen
B5 no binding seen
B6 no binding seen
B7 no binding seen
B8 no binding seen
B9 no binding seen
B10 no binding seen
B11 no binding seen
B12 no binding seen
B13 no binding seen
B14 no binding seen
B15 no binding seen
B16 no binding seen
B17 no binding seen
B18 no binding seen
B19 no binding seen
B20 no binding seen
B21 no binding seen
B22 no binding seen
B23 > 2.63 nM
B24 no binding seen
B25 no binding seen
B26 no binding seen
B27 no binding seen
B28 no binding seen
B29 no binding seen
B30 no binding seen
B31 no binding seen
B32 no binding seen
B33 no binding seen
B34 no binding seen
B35 no binding seen
B36 no binding seen
B37 no binding seen

2 records picked at random from the list so far:
Apparent Kd, inactive:
B29 no binding seen
B30 no binding seen
